Source: the supplement of paper PMC12024529
Counter-ions that a name gives are not always drawn. This is one part of the list. Baselines shift from plate to plate; read single values as rough.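 The cells are HEK293 lines stably expressing B-domain-deleted factor VIII fused to Gaussia luciferase, either wild type or a misfolding-prone missense mutant. Each score is mean luminescence from triplicate wells minus the DMSO mean, divided by the DMSO standard deviation; a score of 2 or more counts as a hit, and low scores may reflect lower secretion or poorer cell viability.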

Legend:
HEK293 WT BDD-FVIII-Gluc = assay: secreted FVIII-Gluc luciferase Z-score vs DMSO control; higher = more FVIII-Gluc secretion; details: 5 µM; 24 h
[1] = tested on: HEK293 p.N1941S BDD-FVIII-Gluc; assay: as above; details: 5 µM; 24 h

SMILES | secreted FVIII-Gluc luciferase Z-score (HEK293 WT BDD-FVIII-Gluc) | secreted FVIII-Gluc luciferase Z-score [1]
CC(C(=O)O)c1ccc(C(=O)c2cccs2)cc1 (stereo unspecified) [Suprofen (Profenal)] | active: 3.07 | inactive: -1.02
O[C@@H]1CO[C@H]2[C@@H]1OC[C@@H]2O [Isosorbide] | active: 2.31 | inactive: 0.783
Cc1cn(-c2cc(NC(=O)c3ccc(C)c(Nc4nccc(-c5cccnc5)n4)c3)cc(C(F)(F)F)c2)cn1 [Nilotinib (AMN-107)] | inactive: -1.23 | inactive: -5.61
Nc1nc(F)nc2c1ncn2[C@@H]1O[C@H](CO)[C@@H](O)[C@@H]1O [Fludarabine (Fludara)] | inactive: -2.48 | inactive: 0.414
COc1cc2c(cc1OC)CC(=O)N(CCCN(C)C[C@H]1Cc3cc(OC)c(OC)cc31)CC2 [Ivabradine HCl (Procoralan)] | inactive: 0.317 | inactive: 0.0642
CC(C)C[C@H](NC(=O)[C@H](Cc1ccccc1)NC(=O)c1cnccn1)B(O)O [Bortezomib (Velcade)] | inactive: -5.34 | inactive: -13.7
CC#CCn1c(N2CCC[C@@H](N)C2)nc2c1c(=O)n(Cc1nc(C)c3ccccc3n1)c(=O)n2C [Linagliptin (BI-1356)] | inactive: 1.96 | inactive: -0.155
CCCc1nc2c(C)cc(-c3nc4ccccc4n3C)cc2n1Cc1ccc(-c2ccccc2C(=O)O)cc1 [Telmisartan (Micardis)] | inactive: -0.535 | inactive: 0.9
O=S(=O)(O)c1cc(O)ccc1O [Ethamsylate] | inactive: 1.66 | inactive: -0.0769
N=C(N)NC(=N)NCCc1ccccc1 [Phenformin hydrochloride] | inactive: 1.47 | inactive: -0.889
CNC(=O)c1cc(Oc2ccc(NC(=O)Nc3ccc(Cl)c(C(F)(F)F)c3)c(F)c2)ccn1 [Regorafenib (BAY 73-4506)] | inactive: -3.47 | inactive: -9.28
Cc1ccc(NC(=O)c2ccc(CN3CCN(C)CC3)cc2)cc1Nc1nc(-c2cccnc2)cs1 [Masitinib (AB1010)] | inactive: -2.87 | inactive: -8.43
CCC(NC(C)C)C(O)c1ccc(O)c(O)c1 (stereo unspecified) [Isoetharine Mesylate] | inactive: 0.85 | inactive: 0.965
C#CCN[C@@H]1CCc2ccccc21 [Rasagiline mesylate] | inactive: 0.136 | inactive: 0.0952
C[C@@H]1C/C=C/C=C/C=C/C=C/[C@H](O[C@@H]2O[C@H](C)[C@@H](O)[C@H](N)[C@@H]2O)C[C@@H]2O[C@](O)(C[C@@H](O)C[C@H]3O[C@@H]3/C=C/C(=O)O1)C[C@H](O)[C@H]2C(=O)O [Natamycin (Pimaricin)] | inactive: -2.51 | inactive: 0.261
CC(C)C[C@H](NC(=O)[C@H](CCc1ccccc1)NC(=O)CN1CCOCC1)C(=O)N[C@@H](Cc1ccccc1)C(=O)N[C@@H](CC(C)C)C(=O)[C@@]1(C)CO1 [Carfilzomib (PR-171)] | inactive: -14.7 | inactive: -3.22
CN(C)CCc1c[nH]c2ccc(C[C@H]3COC(=O)N3)cc12 [Zolmitriptan (Zomig)] | inactive: -1.35 | inactive: 0.153
COc1ccc2[nH]c([S@@+]([O-])Cc3ncc(C)c(OC)c3C)nc2c1 [Esomeprazole magnesium (Nexium)] | inactive: 0.064 | inactive: -2.47
COC(=O)CCc1ccc(OCC(O)CNC(C)C)cc1 (stereo unspecified) [Esmolol HCl] | active: 3.28 | inactive: 1.79
NCCCCCC(=O)O [Aminocaproic acid (Amicar)] | inactive: -1.96 | inactive: 0.0498
C=CC[N+]1([C@H]2C[C@H]3[C@@H]4CC[C@H]5C[C@H](O)[C@@H](N6CCOCC6)C[C@]5(C)[C@H]4CC[C@]3(C)[C@H]2OC(C)=O)CCCC1 [Rocuronium bromide] | inactive: -11.5 | inactive: -0.54
CN(Cc1cc(Br)cc(Br)c1N)C1CCCCC1 [Bromhexine HCl] | inactive: 1.75 | inactive: -0.162
COc1ccccc1OCC(O)COC(N)=O (stereo unspecified) [Methocarbamol (Robaxin)] | inactive: -0.309 | inactive: 0.528
C[C@H](CCC(=O)O)[C@H]1CC[C@H]2[C@@H]3[C@H](O)C[C@@H]4C[C@H](O)CC[C@]4(C)[C@H]3CC[C@]12C [Chenodeoxycholic acid] | inactive: -2.27 | inactive: -0.614
C#C[C@]1(O)CC[C@H]2[C@@H]3CCC4=CC(=O)CC[C@@H]4[C@H]3CC[C@@]21CC [Levonorgestrel (Levonelle)] | inactive: -2.35 | inactive: 1.02
C=C[C@H]1CN2CC[C@H]1C[C@H]2[C@H](O)c1ccnc2ccc(OC)cc12 [Quinine hydrochloride dihydrate] | inactive: -0.25 | inactive: 0.367
CN(C)CCC[C@@]1(c2ccc(F)cc2)OCc2cc(C#N)ccc21 [Escitalopram oxalate] | inactive: -0.565 | inactive: -0.0953

SMILES | secreted FVIII-Gluc luciferase Z-score (HEK293 WT BDD-FVIII-Gluc) | secreted FVIII-Gluc luciferase Z-score [1]
CS(=O)(=O)c1ccc(C(=O)Nc2ccc(Cl)c(-c3ccccn3)c2)c(Cl)c1 [Vismodegib (GDC-0449)] | inactive: 1.31 | inactive: 0.914
OC(CNCC(O)C1CCc2cc(F)ccc2O1)C1CCc2cc(F)ccc2O1 (stereo unspecified) [Nebivolol (Bystolic)] | inactive: -4.21 | inactive: -0.463
C=C1c2cccc(O)c2C(O)=C2C(=O)[C@]3(O)C(O)=C(C(N)=O)C(=O)[C@@H](N(C)C)[C@@H]3[C@@H](O)[C@H]12 [Methacycline hydrochloride (Physiomycine)] | active: 3.69 | inactive: -5.9
OCCN1C[C@H](O)[C@@H](O)[C@H](O)[C@H]1CO [Miglitol (Glyset)] | inactive: -2.85 | inactive: -0.487
CCOc1ccc(NC(C)=O)cc1 [Phenacetin] | inactive: 1.42 | inactive: 1.15
CC(C)(C)c1cc(C(C)(C)C)c(NC(=O)c2c[nH]c3ccccc3c2=O)cc1O [Ivacaftor (VX-770)] | inactive: 1.52 | inactive: -3.49
NS(=O)(=O)c1cc2c(cc1Cl)N=C(CSCc1ccccc1)NS2(=O)=O [Benzthiazide] | inactive: -0.743 | inactive: 1.64
CO/N=C(\C(=O)N[C@@H]1C(=O)N2C(C(=O)OCOC(=O)C(C)(C)C)=C(/C=C\c3scnc3C)CS[C@H]12)c1csc(N)n1 [Cefditoren pivoxil] | inactive: -2.93 | inactive: 0.772
NC(=O)N1c2ccccc2C=Cc2ccccc21 [Carbamazepine (Carbatrol)] | inactive: -1.65 | inactive: 0.583
CC1(C)S[C@@H]2[C@H](NC(=O)Cc3ccccc3)C(=O)N2[C@H]1C(=O)O [Penicillin G Sodium] | inactive: 0.861 | inactive: 1.09
O=C(CCCCCCC(=O)Nc1ccccc1)NO [Vorinostat (SAHA)] | active: 4.92 | active: 6.07
O=C(O)CCNC(=O)c1ccccc1 [Betamipron] | inactive: 1.4 | inactive: 0.182
OC(Cn1cncn1)(Cn1cncn1)c1ccc(F)cc1F [Fluconazole] | inactive: -0.334 | inactive: 0.597
COc1ccc(C(=O)CC(=O)c2ccc(C(C)(C)C)cc2)cc1 [Avobenzone (Parsol 1789)] | inactive: 0.00486 | inactive: -0.272
CN1CCN(C2=Nc3cc(Cl)ccc3Nc3ccccc32)CC1 [Clozapine (Clozaril)] | inactive: -0.688 | inactive: -1.85
CCOc1nc2cccc(C(=O)OC(C)OC(=O)OC3CCCCC3)c2n1Cc1ccc(-c2ccccc2-c2nn[nH]n2)cc1 (stereo unspecified) [Candesartan cilexetil (Atacand)] | active: 2.67 | inactive: -1.63
Nc1ccn([C@@H]2O[C@H](CO)[C@@H](O)C2(F)F)c(=O)n1 [Gemcitabine (Gemzar)] | inactive: -8.96 | inactive: -5.17
CNCC[C@H](Oc1cccc2ccccc12)c1cccs1 [Duloxetine HCl (Cymbalta)] | inactive: -1.34 | inactive: -2.18
CN1CCCCC1CCN1c2ccccc2Sc2ccc([S+](C)[O-])cc21 (stereo unspecified) [Mesoridazine Besylate] | inactive: 0.0491 | inactive: -0.683
CCOc1cc(CC(=O)N[C@@H](CC(C)C)c2ccccc2N2CCCCC2)ccc1C(=O)O [Repaglinide] | inactive: -2.62 | inactive: -0.363
CCCc1ncc(C[n+]2ccccc2C)c(N)n1 [Amprolium HCl] | inactive: 1.17 | inactive: 1.09
CCCCC(=O)N(Cc1ccc(-c2ccccc2-c2nnn[nH]2)cc1)[C@H](C(=O)O)C(C)C [Valsartan (Diovan)] | inactive: -1.51 | inactive: 1.42
CN(C)CCOC(c1ccccc1)c1ccccc1 [Diphenhydramine HCl (Benadryl)] | inactive: -3.79 | inactive: -1.54
Cc1cc(C#N)cc(C)c1Oc1nc(Nc2ccc(C#N)cc2)nc(N)c1Br [Etravirine (TMC125)] | inactive: -1.68 | inactive: -1.38
COC(=O)/C=C/C(=O)OC [Dimethyl Fumarate] | inactive: -8.82 | inactive: -2.52
C[C@]12CC[C@@H]3c4ccc(O)cc4C[C@@H](CCCCCCCCC[S+]([O-])CCCC(F)(F)C(F)(F)F)[C@H]3[C@@H]1CC[C@@H]2O (stereo partly specified) [Fulvestrant (Faslodex)] | inactive: 0.221 | inactive: -2

Structures listed so far that contain a cyano group (2):
SMILES | secreted FVIII-Gluc luciferase Z-score (HEK293 WT BDD-FVIII-Gluc) | secreted FVIII-Gluc luciferase Z-score [1]
CN(C)CCC[C@@]1(c2ccc(F)cc2)OCc2cc(C#N)ccc21 [Escitalopram oxalate] | inactive: -0.565 | inactive: -0.0953
Cc1cc(C#N)cc(C)c1Oc1nc(Nc2ccc(C#N)cc2)nc(N)c1Br [Etravirine (TMC125)] | inactive: -1.68 | inactive: -1.38
